Results: doi:10.1101/2024.10.09.24314670
These are yes or no findings as the source states them, for the method shown. Binding seen in cells or lysates may run through a third protein. Some entries that bind do so weakly or less than the wild type.

Protein sequences, listed by entry. Tags and fused reporters are not part of them. Lines headed by an entry give the natural chain unless they say otherwise; changes in a name come on top.
UniProt O09106: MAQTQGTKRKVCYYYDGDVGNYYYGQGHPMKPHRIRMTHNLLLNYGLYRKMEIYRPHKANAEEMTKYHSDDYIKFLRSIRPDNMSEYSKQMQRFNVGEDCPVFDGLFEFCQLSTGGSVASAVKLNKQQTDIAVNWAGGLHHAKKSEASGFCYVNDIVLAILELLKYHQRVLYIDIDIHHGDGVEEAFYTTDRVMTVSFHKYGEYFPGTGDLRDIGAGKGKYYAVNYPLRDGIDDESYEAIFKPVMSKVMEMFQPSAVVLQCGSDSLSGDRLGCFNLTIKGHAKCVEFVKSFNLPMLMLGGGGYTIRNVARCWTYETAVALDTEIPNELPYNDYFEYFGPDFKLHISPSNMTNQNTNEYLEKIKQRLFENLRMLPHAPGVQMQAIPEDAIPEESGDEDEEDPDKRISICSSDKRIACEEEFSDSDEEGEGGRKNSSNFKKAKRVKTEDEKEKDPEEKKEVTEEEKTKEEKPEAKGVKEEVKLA
UniProt P50752: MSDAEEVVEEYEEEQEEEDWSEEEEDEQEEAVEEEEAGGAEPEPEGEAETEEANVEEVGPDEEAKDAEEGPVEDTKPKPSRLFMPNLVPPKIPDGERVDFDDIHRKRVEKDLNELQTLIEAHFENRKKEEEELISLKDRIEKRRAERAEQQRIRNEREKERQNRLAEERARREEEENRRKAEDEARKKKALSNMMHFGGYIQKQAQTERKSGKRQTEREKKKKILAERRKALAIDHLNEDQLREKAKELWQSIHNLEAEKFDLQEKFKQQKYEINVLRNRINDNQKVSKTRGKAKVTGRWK

Legend:
[1] = molecular target: HDAC1 of mouse hearts (mouse (endogenous in mouse ventricle)) (UniProt O09106); assay: proximity ligation
[2] = molecular target: HDAC1 of mouse hearts (mouse (endogenous in mouse ventricle)) (UniProt O09106); assay: co-IP
[3] = molecular target: HDAC1 (human (endogenous in hiPSC-derived cardiomyocytes)) (UniProt Q13547); assay: proximity ligation

Substance	binding [1]	binding [2]	binding [3]
TNNT2(WT) of wild type mouse hearts (from UniProt P50752 1-301)	binds	binds	
TNNT2 of Health-hCM (from UniProt P45379 1-298)			binds
mutant TNNT2 of Tnnt2^R154W/R154W (TT) mouse hearts (from UniProt P50752 1-301)	binds	binds	
